This note sets out measurements from article PMC11349379.

These are yes or no findings as the source states them, for the method shown. In cells and extracts the contact can be indirect. Binding can be weak; no strength is given.

The target of assay [1] is T1, IFT139 (C. reinhardtii (endogenous in dhc1b-3 cilia)) (UniProt A9XPA6).
T1 sequence: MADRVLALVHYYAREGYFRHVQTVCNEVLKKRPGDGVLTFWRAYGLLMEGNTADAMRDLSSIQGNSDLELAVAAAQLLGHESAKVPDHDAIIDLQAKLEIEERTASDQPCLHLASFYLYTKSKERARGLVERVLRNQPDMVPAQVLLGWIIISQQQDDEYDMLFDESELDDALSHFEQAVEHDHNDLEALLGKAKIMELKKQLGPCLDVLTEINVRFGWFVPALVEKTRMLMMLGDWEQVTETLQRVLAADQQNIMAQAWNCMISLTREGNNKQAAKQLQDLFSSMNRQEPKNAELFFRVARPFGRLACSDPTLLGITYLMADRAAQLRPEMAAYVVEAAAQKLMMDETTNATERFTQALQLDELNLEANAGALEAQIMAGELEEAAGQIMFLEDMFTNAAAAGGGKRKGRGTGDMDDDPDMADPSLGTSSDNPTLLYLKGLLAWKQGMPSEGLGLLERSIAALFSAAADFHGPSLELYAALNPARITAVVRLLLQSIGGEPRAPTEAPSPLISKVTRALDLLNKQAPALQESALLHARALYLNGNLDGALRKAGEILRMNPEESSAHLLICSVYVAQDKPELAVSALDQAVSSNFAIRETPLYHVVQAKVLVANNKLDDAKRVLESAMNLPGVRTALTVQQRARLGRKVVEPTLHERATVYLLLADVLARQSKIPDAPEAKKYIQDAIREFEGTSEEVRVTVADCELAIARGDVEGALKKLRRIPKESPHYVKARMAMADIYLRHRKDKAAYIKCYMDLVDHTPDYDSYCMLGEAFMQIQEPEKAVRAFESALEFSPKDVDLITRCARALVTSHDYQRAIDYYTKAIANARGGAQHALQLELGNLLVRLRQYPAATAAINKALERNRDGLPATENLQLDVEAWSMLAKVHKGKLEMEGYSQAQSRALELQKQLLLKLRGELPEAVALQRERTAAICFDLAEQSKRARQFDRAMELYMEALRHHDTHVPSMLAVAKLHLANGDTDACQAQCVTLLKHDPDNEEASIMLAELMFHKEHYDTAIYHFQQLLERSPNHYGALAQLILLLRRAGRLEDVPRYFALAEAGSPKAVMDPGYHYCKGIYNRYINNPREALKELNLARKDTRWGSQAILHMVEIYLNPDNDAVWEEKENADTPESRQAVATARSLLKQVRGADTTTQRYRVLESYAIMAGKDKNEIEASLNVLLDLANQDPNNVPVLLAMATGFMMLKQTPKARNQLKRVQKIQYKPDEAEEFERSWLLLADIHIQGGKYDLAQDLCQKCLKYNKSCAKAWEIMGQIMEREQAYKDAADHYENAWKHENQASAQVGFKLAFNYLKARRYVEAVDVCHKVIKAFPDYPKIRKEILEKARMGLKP
Put plainly: cross-linking; in situ cross-linking mass spectrometry: dhc1b-3 cells after 10 h at 34°C, deciliated, 1 mM DSSO for 45 minutes at room temperature, quenched with Tris, cilia isolated; 3% FDR at the residue pair level.

The target of assay [2] is T2, IFT74 (C. reinhardtii (endogenous in dhc1b-3 cilia)) (UniProt Q6RCE1).
T2 sequence: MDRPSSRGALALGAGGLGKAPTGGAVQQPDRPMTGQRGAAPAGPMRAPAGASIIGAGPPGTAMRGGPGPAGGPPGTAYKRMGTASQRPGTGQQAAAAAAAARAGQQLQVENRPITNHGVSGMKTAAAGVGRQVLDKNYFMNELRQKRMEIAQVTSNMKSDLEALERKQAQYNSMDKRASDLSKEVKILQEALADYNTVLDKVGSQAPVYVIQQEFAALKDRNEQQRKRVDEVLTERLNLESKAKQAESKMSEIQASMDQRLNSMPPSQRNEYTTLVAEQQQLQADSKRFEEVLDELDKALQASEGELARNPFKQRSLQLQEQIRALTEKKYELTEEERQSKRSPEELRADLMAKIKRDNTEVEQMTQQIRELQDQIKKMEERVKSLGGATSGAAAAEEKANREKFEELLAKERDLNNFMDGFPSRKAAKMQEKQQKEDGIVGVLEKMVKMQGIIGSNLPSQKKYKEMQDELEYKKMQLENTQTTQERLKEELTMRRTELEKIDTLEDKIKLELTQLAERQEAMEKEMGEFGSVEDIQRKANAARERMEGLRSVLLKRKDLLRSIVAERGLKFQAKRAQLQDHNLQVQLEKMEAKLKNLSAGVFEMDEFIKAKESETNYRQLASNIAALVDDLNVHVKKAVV
Described as above.

Consider IFT38, for which the binding entry in assay [1] was “binds”.
For the substance FAP11, the binding result in assay [2] is recorded as “binds”.
